Data reported in patent publication US20210179727A1.

B1: LYV376 (chimeric antibody, 19G6D6 in human IgG4SP / human kappa) (antibody, V domains shown)
VH: EVQLQQSGPELVKPGASVKIPCKASGYTFTDYNMDWVKQSHGKSLEWIGDINPNNDISIYNQKFRGKATLTVDKSSSTAYMELRSLTSEDTAVYYCARRFAYWGQGTLVTVSA
VL: EIVLTQSPTTMAASPGEKITITCSASSSISSNYLHWYQQKPGSSPKVLIYRTSNLASGVPVRFSGSGSGTSYSLTIGTMEAEDVATYYCQQGSSIPYTFGGGTKLEIKR
B2: LYV377 (chimeric antibody, 13F1A7 in human IgG4SP / human kappa) (antibody, V domains shown)
VH: EVQILETGGGLVKPGGSLRLSCATSGFNFNDSFMNWVRQAPGKGLEWVAQIRNKNYNYATYYTESLEGRVTISRDDSKSRVYLQVSSLRAEDSAVYYCTSYYYDGFADYFDYWGQGVMVTVSS
VL: DIKMTQSPSFLSASVGDSVTFTCKASQNIYIYLNWYQQKFGEAPKLLIYNTNNLQTGIPSRFSGSESGTVFTLTISSLQPEDVATYFCLQHSSRRTFGGGTKLELKR
B3: LYV378 (chimeric antibody, 9F12D9 in human IgG4SP / human kappa) (antibody, V domains shown)
VH: EVHLVESGGGLVQPGRSLKLSCAASGFTFTNYGLHWIRQAPTKGLEWVASISPSGGVTYYRDSVKGRFTISRDNGKTTLHLQMDSLRSEDTATYYCALPFLGWGGANWIAHWGQGTLVTVSS
VL: DIQMTQSPASLSASLGETVSIECLASEDISNDLAWYQQKSGKSPQLLIYFVDRLLDGVPSRFSGSGSGTRHSLKISGMQPEDEADYFCQQSYKYPPTFGGGTKLELKR
B4: LYV379 (chimeric antibody, 17C5C2 in human IgG4SP / human kappa) (antibody, V domains shown)
VH: EVHILETGGGLVKPGGSLGLSCTTSGFNFNDYFMNWVRQAPGKGLEWVAQIRNGNYDYAAYYAESLEGRVTISRDDSKSSVNLQVSSLRAEDTAIYYCTSYYYDGHFDYFDNWGHGVMVTVSS
VL: DIKVTQSPSFLSASVGDRATINCKASQNLNKYLNWYQQKPGEPPKLLIYNTDNLYTGIPSRFSGSGSVADFTLTISGLQPEDVATYFCMQHNVRRTFGGGTKLELKR

Target: monkey CD40 protein (plate coat of the ELISA of Fig. 5) (cynomolgus monkey per paragraph 23; rhesus monkey per paragraph 173)
Experiment: ELISA on monkey CD40 protein coated on the plate, anti-human IgG-HRP, A450

binding, binds:
B1, B2, B3, B4

No constants are given. Whether binding was seen depends on the method and setting. Binding calls can cover weak binding; strength is not graded here.
